Reference: patent publication US9381349B2, “Apparatus for treating cerebral neurovascular disorders including headaches by neural stimulation” (priority 1997, dated 2016)
Read-outs that look alike come from different tables or passages of the source.

Tests used:
migraine = details: lidocaine, Intranasal Spray, of patients who exhibited relief, usually within one hour post-treatment, cited from earlier work
headache = details: 10% (w/v) lidocaine solution; three patients
[1] = cited from earlier work

CCN(CC)CC(=O)Nc1c(C)cccc1C [Lidocaine, lidocaine]
Rebound Rate (migraine): 42% | Rebound Rate (migraine; listed as lidocaine): at least 42% | Rebound of headache symptoms (headache): rebounded in two of the patients in less than one hour | Proportion bound to protein in vivo [1]: about 65%
